Experiment [1] concerns the target HPV52 VLP (HPV52). Kind of experiment: SPR, BIACORE 3000. On the technique in general: Surface plasmon resonance follows binding to a sensor surface in real time, without labels.
Experiment [2] addresses HPV52 VLP (HPV52). Kind of experiment: sandwich ELISA kit: 5A6 capture, 4G12-HRP detection (result of the pair of antibodies). A general note: In an ELISA, binding on a coated surface is turned into a signal by an enzyme label.

No constants are given. Whether binding was seen depends on the method and setting.

B1: 单克隆抗体5A6 (杂交瘤细胞株5A6, CGMCC 11299) (antibody, V domains shown)
VH: VKLQQSGAELVKPGASVKLSCTASGFNIKDTYMHWVKQRPEQGLEWIGRIDPANGNTEYDPNFQGKATITSDTSSNTAYLHLSSLTSEDTAVYYCAREVGGYYFDYWGQGTTVTVSS
VL: DIQLTQSPSSMSASLGDRITITCQATQDIVKNLNWYQQKPGKPPSFLIYYATELAEGVPSRFSGSGSGSDYSLTISNLESEDFADYYCLQFYEFPLTFGAGTKLEI
As for B1, the figures for the binding entry with HPV52 VLP (HPV52) [1] and with HPV52 VLP (HPV52) [2] were “no binding (tested: antibody up to 20nmol/L)” and “no binding (tested: 10ug/ml VLP)”, respectively.

(Values after patent CN105585631A.)
